According to PubChem BioAssay AID1347075 (National Center for Advancing Translational Sciences (NCATS), 2019):
In all, about 400,000 compounds went through this assay and about 5,500 (1.4%) were called active. Inconclusive results, whose numbers are uncertain, are shown with a selection of clear calls. Calls come from the whole dose curve; as a rule, active = well fitted cell-killing curve with a large enough effect; inconclusive = small, poorly fitted or top-dose-only effect, or effect the other way; inactive = flat fitted curve, though single readings scatter. Potencies beside an inconclusive call are fits to weak or partial responses and may not hold up.
% is set by controls: 0 for no effect and ±100 for the full control effect; potency is the fitted concentration of half-maximal effect.

Test: qHTS assay for MDR1-selective chemotherapeutics: Primary screen using the parental adenocarcinoma cell KB-3-1; note: nearly all actives have a fitted effect of over 60% in size
Settings: KB-3-1 viability, CellTiter-Glo ATP luminescence, 72 h; activity change, negative = cytotoxic: at 46.1 µM (top of the series)
Outline: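 KB-3-1 parental drug-naive adenocarcinoma cells in DMEM/10% FBS, incubated 72 h at 37 C with pin-transferred compounds across a concentration series. Viability by CellTiter-Glo luminescence; concentration-response curves fitted after normalization.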
For `COc1ccccc1NS(=O)(=O)c1cccc(C(=O)N/N=C/c2c(CO)cnc(C)c2O)c1`, the Potency was inconclusive: 29.1 µM [cytotoxic, single point].
In the case of `COc1ccc(C(=O)C[n+]2cc(Br)cc3ccccc32)cc1`, the “activity change, negative = cytotoxic” value is reported as inactive: 0%.
In the case of `O=C(/C=C/c1cn(CC(O)CN2CCCCC2)c2ccccc12)c1cccs1` (stereo not drawn), the Potency is reported as inconclusive: 29.1 µM [cytotoxic, single point].
In the case of `CC1Cc2cc(S(=O)(=O)NCc3ccccc3)ccc2N1C(=O)C1CC1` (stereo not drawn), the Potency is reported as inconclusive: 29.1 µM [cytotoxic, single point].
In the case of `CC12CCC(=O)N1C(C(=O)NCCN1C(=O)S/C(=C\c3ccccc3F)C1=O)CS2` (stereo not drawn), the Potency is reported as inconclusive: 29.1 µM [cytotoxic, single point].
With `O=C(CN1C(=O)/C(=C\c2cccc(F)c2)Oc2ccccc21)N1CCN(c2ccccn2)CC1` the Potency was inconclusive: 29.1 µM [cytotoxic, single point].
With `CC1=NN(c2ccccc2)C(=O)/C1=C/C=C/C=C/N(C)C` the Potency was inconclusive: 7.31 µM [cytotoxic, partial curve].
With `CC[C@@]1(c2ccccc2OC)ON(c2ccccc2C(F)(F)F)C1=O` the Potency was inconclusive: 29.1 µM [cytotoxic, single point].
With `COc1ccc(OC)c(/C=C2\SC(=S)N(N3CCOCC3)C2=O)c1` the Potency was inconclusive: 18.4 µM [rising, single point].
With `Cc1cc(C2=NNC(=NC3CC3)SC2)c(C)n1-c1ccccc1F` the Potency was inconclusive: 29.1 µM [cytotoxic, single point].
For `Nc1c(-c2nc(-c3cccs3)no2)nnn1-c1cccc(Cl)c1`, the “activity change, negative = cytotoxic” value was inactive: 1.87%.
In the case of `Cc1cc(C)cc(NC(=O)/C(C#N)=C/c2cn(CC(=O)NCc3ccco3)c3ccccc23)c1`, the Potency is reported as inconclusive: 23.1 µM [cytotoxic, single point].
For `Clc1ccc2oc(-c3ccccc3)cc(=NCCCN3CCOCC3)c2c1`, the Potency was inconclusive: 29.1 µM [cytotoxic, single point].
With `COc1ccc(C2CC(c3ccc(C)cc3)=NN2C(=O)c2ccccc2)cc1` (stereo not drawn) the Potency was inconclusive: 29.1 µM [cytotoxic, single point].
With `COC(=O)[C@@]12C[C@@H](CC(=O)NCc3cccs3)C(=O)N(Cc3ccc4c(c3)OCO4)C1=CCC(C)(C)C2` the “activity change, negative = cytotoxic” value was inactive: -11.2%.
With `ClCCn1cnc2c(SCc3ccccc3)ncnc21` the Potency was active: 4.11 µM.
For `CCOc1ccccc1CC1C(=O)Nc2ccc(Br)cc21` (stereo not drawn), the Potency was inconclusive: 20.6 µM [cytotoxic, single point].
For `O=C(COC(=O)CCSc1ccc(Cl)cc1)NCc1ccco1`, the “activity change, negative = cytotoxic” value was inactive: -0.691%.
With `O=c1cc(-c2ccccc2F)nc(-c2ccccc2F)o1` the Potency was inconclusive: 18.4 µM [rising, single point].
For `Oc1ccc(C[C@H]2CNC(=S)N2C[C@H]2CCCN2C[C@H](Cc2ccccc2)N2C[C@H](Cc3ccccc3)N(CC3CCCCC3)C2=S)cc1`, the Potency was inconclusive: 16.4 µM [cytotoxic, single point].
In the case of `O=C(Nc1cccnc1)c1ccc(Cl)c(S(=O)(=O)N2CCOCC2)c1`, the “activity change, negative = cytotoxic” value is reported as inactive: 5.93%.
In the case of `O=C(N=Nc1c(O)n(Cc2ccccc2)c2ccccc12)c1ccncc1`, the Potency is reported as inconclusive: 29.1 µM [cytotoxic, single point].
In the case of `Cc1cc(OCC(=O)NNC(=S)NC(=O)c2cccs2)ccc1Cl`, the Potency is reported as inconclusive: 29.1 µM [cytotoxic, single point].
In the case of `CCCc1n(CC(O)COCc2ccccc2)c2ccccc2[n+]1C` (stereo not drawn), the “activity change, negative = cytotoxic” value is reported as inactive: -25.5%.
For `Cc1cc(N2CCCCC2)nc2ccc(NC(=O)/C=C/c3ccccc3Cl)cc12`, the Potency was inconclusive: 29.1 µM [cytotoxic, single point].
With `Cc1c(NC(=O)/C(C#N)=C/c2c(Oc3ccccc3)nc3ccccn3c2=O)c(=O)n(-c2ccccc2)n1C` the Potency was inconclusive: 18.4 µM [cytotoxic, single point].
With `Cc1cc(-n2c(SCC(=O)Nc3ccc(F)c(F)c3)nc3n[nH]c(C)c3c2=N)ccc1Cl` the “activity change, negative = cytotoxic” value was inactive: -12.4%.
With `CCCCc1nc2cc(C(=O)N3CCN(c4nc(C)cnc4C)CC3)ccc2o1` the activity change, negative = cytotoxic was inconclusive: -31.3% [cytotoxic].
With `Cc1ccc(NS(=O)(=O)c2ccc(N3CCN(c4ccc(O)cc4)CC3)c([N+](=O)[O-])c2)c(C)c1` the Potency was inconclusive: 29.1 µM [cytotoxic, single point].
With `O=C(NC1CCCCC1)C1c2ccccc2OCC(=O)N1Cc1ccccn1` (stereo not drawn) the “activity change, negative = cytotoxic” value was inactive: 2.93%.
In the case of `COc1ccc(-c2nc(-c3cccc(C(F)(F)F)c3)no2)cc1OC`, the “activity change, negative = cytotoxic” value is reported as inactive: -5.51%.
In the case of `O=C(Nc1cccc(Cl)c1)OCCN1CCN(Cc2ccccc2)CCC1=O`, the “activity change, negative = cytotoxic” value is reported as inactive: -28.2%.
For `O=C(COc1ccc(S(=O)(=O)N2CCCCC2)cc1)NCc1ccncc1`, the “activity change, negative = cytotoxic” value was inactive: -20.5%.
For `CCC(CO)N=C1CC(C)(C)CC(=O)/C1=C(/O)CCCN1C(=O)c2ccccc2C1=O` (stereo not drawn), the “activity change, negative = cytotoxic” value was inactive: 18.8%.
In the case of `Cc1ccc(CNC(=O)C2CC(c3ccc(C(F)(F)F)cc3)=NO2)o1` (stereo not drawn), the Potency is reported as inconclusive: 29.1 µM [cytotoxic, single point].
For `CCOC(=O)C1C(c2ccc(O)c(OCC)c2)NC(=S)NC1(O)C(F)(F)F` (stereo not drawn), the Potency was inconclusive: 16.4 µM [rising, single point].
With `CCCn1c(=S)[nH]c2cc(C(=O)N3CCN(C4CCCCC4)CC3)ccc2c1=O` the Potency was inconclusive: 2.59 µM [cytotoxic, full curve, poor fit].
For `CCOc1cc(C2c3c(-c4ccc(Br)cc4)n[nH]c3C(=O)N2c2ccc(Cl)cc2)ccc1O` (stereo not drawn), the Potency was inconclusive: 29.1 µM [cytotoxic, single point].
With `O=C(NC1CCCCC1)c1c(O)nc2sccn2c1=O` the Potency was inconclusive: 29.1 µM [cytotoxic, single point].
With `Cc1ccc(CNC(=O)c2ccc3c(O)c(S(=O)(=O)c4ccccc4)c(=O)[nH]c3c2)cc1` the “activity change, negative = cytotoxic” value was inactive: 18.3%.
For `CC1C/C(=C/c2ccncc2)C(=O)/C(=C/c2ccncc2)C1` (stereo not drawn), the Potency was inconclusive: 3.66 µM [cytotoxic, full curve, poor fit].
With `COc1cc(/C=C(/C#N)c2ccc(F)cc2)ccc1Oc1ccc([N+](=O)[O-])cn1` the Potency was inconclusive: 18.4 µM [cytotoxic, single point].
In the case of `Cc1cc(N2CCCC2)ccc1/C=C1/C(=O)N(C)C(=S)N1C`, the Potency is reported as inconclusive: 20.6 µM [cytotoxic, single point].
With `CC1NC(=O)c2cccnc2-n2c1nc1cc(F)ccc1c2=O` (stereo not drawn) the “activity change, negative = cytotoxic” value was inactive: 17.4%.
With `O=C(CNC(=O)c1ccccc1Cl)c1ccccc1` the “activity change, negative = cytotoxic” value was inactive: -6.74%.
For `COc1ccc(NC(=S)c2ccncc2)cc1`, the Potency was inconclusive: 18.4 µM [cytotoxic, partial curve].
With `Nc1nc2n(n1)C(c1ccco1)CC(c1ccc(Cl)cc1)N2` (stereo not drawn) the Potency was inconclusive: 10.3 µM [rising, partial curve, poor fit].
With `COCCNC(=O)c1cc(-c2ccccc2OC)on1` the Potency was active: 9.2 µM.
With `C=CCn1c(COc2ccc(Cl)cc2)nnc1SCC(=O)N1CC(=O)Nc2ccccc21` the Potency was inconclusive: 15.8 µM [rising, partial curve].
With `C/C(Cc1ccccc1)=N\NC(=O)C1CCCCC1` the activity change, negative = cytotoxic was inconclusive: -89.6%.
In the case of `CC1Cc2ccccc2N1C(=O)CSc1ccccc1` (stereo not drawn), the “activity change, negative = cytotoxic” value is reported as inactive: 7.1%.
In the case of `O=C(NC(NC(=S)Nc1c(Cl)cccc1Cl)C(Cl)(Cl)Cl)OCc1ccccc1` (stereo not drawn), the Potency is reported as inconclusive: 18.4 µM [cytotoxic, single point].
For `COc1ccc(-n2nc3c(c2NC(=O)C2CC(=O)N(c4ccccc4)C2)CS(=O)(=O)C3)cc1` (stereo not drawn), the Potency was inconclusive: 32.6 µM [rising, single point].
In the case of `Cc1c(NC(=S)N/N=C\c2ccccc2O)c(=O)n(-c2ccccc2)n1C`, the Potency is reported as inconclusive: 23.1 µM [cytotoxic, single point].
With `COc1ccc(/C=N/NC(=O)c2c(C)nc3ccc(Cl)cn23)cc1OC` the Potency was inconclusive: 0.0058 µM [cytotoxic, full curve, poor fit].
For `COc1ccccc1NS(=O)(=O)c1cc(-c2cnc(C3CC3)o2)ccc1C`, the Potency was inconclusive: 29.1 µM [cytotoxic, single point].
For `CC1=C(C(=O)N(C)C)CC(CC(=O)NC2CCCC2)C(=O)N1Cc1ccccc1` (stereo not drawn), the “activity change, negative = cytotoxic” value was inactive: 13.8%.
For `O=C(NCCC1=CCCCC1)c1ccc2c(c1)ncn2-c1ccc(F)c(F)c1`, the “activity change, negative = cytotoxic” value was inactive: 10%.
In the case of `O=C1OCC2=C1C(c1ccc(F)cc1)c1cc3c(cc1N2)OCCO3` (stereo not drawn), the Potency is reported as active: 0.164 µM.
In the case of `CCN1CCN(C(=O)COCc2cc(-c3ccc4c(c3)OCO4)on2)CC1`, the “activity change, negative = cytotoxic” value is reported as inactive: 0.83%.
For `Cn1c(=O)c2c(nc(CN3CCN(C(=O)c4ccco4)CC3)n2CCCc2ccccc2)n(C)c1=O`, the “activity change, negative = cytotoxic” value was inactive: -8.28%.
With `C#CCNC(=O)C[C@@H]1C[C@@]2(C(=O)OC)CC(C)(C)CC=C2N(Cc2cccc3ccccc23)C1=O` the Potency was inconclusive: 29.1 µM [cytotoxic, single point].
With `CCCCn1c(N)c(N(CCC(C)C)C(=O)CC2CCCC2)c(=O)[nH]c1=O` the Potency was inconclusive: 23.1 µM [rising, single point].
With `CC(C)(C)c1ccc(C(=O)N2CCCN(C(=O)c3ccc(C(C)(C)C)cc3)CC2)cc1` the Potency was inconclusive: 16.4 µM [cytotoxic, single point].
For `COCCC(=O)N1CCC(Oc2ccc(C(=O)NCCc3cn[nH]c3)cc2)CC1`, the “activity change, negative = cytotoxic” value was inactive: 2.91%.
For `CCOc1ccc(OCC)c(S(=O)(=O)NCCOC23CC4CC(CC(C4)C2)C3)c1`, the Potency was inconclusive: 20.6 µM [cytotoxic, single point].
With `O=C(NNC(=O)c1ccccc1F)c1cccc(S(=O)(=O)N2CCc3ccccc32)c1` the Potency was inconclusive: 13 µM [cytotoxic, partial curve].
For `O=C(NCc1cccc(F)c1)c1cccc(NC(=O)c2nsc3ccccc23)c1`, the Potency was inconclusive: 8.2 µM [cytotoxic, partial curve, poor fit].
